{"source": "PubChem BioAssay AID1053208, Peter MacCallum Cancer Centre, 2014", "screen": "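Find knock-downs that sensitise mouse osteosarcoma cells to doxorubicin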 (primary screen)", "cell system": "mouse osteosarcoma cells, early-passage culture from an engineered mouse model of fibroblastic bone tumour", "reagents": "siRNA pool against mouse genes, 40 nM", "duration": "about 120 h (48 h before drug, then 72 h with drug)", "conditions": "doxorubicin 100 nM for 72 h, roughly 30-40% inhibitory dose", "measurement": "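Viability read as ATP luminescence after 72 h of 100 nM doxorubicin or none, duplicate wells averaged, scaled to non-targeting siRNA, then expressed as robust z-scores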", "direction": "viability z-score with doxorubicin: higher = more viable cells under doxorubicin; viability z-score without drug: higher = more viable cells with knock-down alone", "rule for the call": "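Called active if knock-down leaves viability unchanged without drug (z within -2 to 2) but lowers it with doxorubicin (z at or under -2)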", "note": "In all, the deposit lists about 17,000 reagents; below is a part drawn at random. 788 of them (4.7%) were called active. 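Calls rest on z-score classes alone; an extra cut-off of viability at most 70% of control was not applied to them.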 Reagents against one gene are numbered here. Further read-outs or replicates are left out here."}
{"gene": "Cldn18", "reagent": 1, "combined z-score class": "no change with or without drug", "viability z-score with doxorubicin": -1.12, "viability z-score without drug": -0.34, "outcome": "inactive"}
{"gene": "Clrn1", "reagent": 1, "combined z-score class": "low cell count with doxorubicin only", "viability z-score with doxorubicin": -3.6, "viability z-score without drug": -1.18, "outcome": "active"}
{"gene": "Sprr1a", "reagent": 1, "combined z-score class": "no change with or without drug", "viability z-score with doxorubicin": 0.9, "viability z-score without drug": 0, "outcome": "inactive"}
{"gene": "Mbl2", "reagent": 1, "combined z-score class": "high cell count with doxorubicin only", "viability z-score with doxorubicin": 2.02, "viability z-score without drug": 0.84, "outcome": "inactive"}
{"gene": "Kifc3", "reagent": 1, "combined z-score class": "no change with or without drug", "viability z-score with doxorubicin": -0.45, "viability z-score without drug": -0.84, "outcome": "inactive"}
{"gene": "Prox1", "reagent": 1, "combined z-score class": "no change with or without drug", "viability z-score with doxorubicin": 0.45, "viability z-score without drug": -0.51, "outcome": "inactive"}
{"gene": "Syngr3", "reagent": 1, "combined z-score class": "no change with or without drug", "viability z-score with doxorubicin": -1.57, "viability z-score without drug": -0.17, "outcome": "inactive"}
{"gene": "A730049H05Rik", "reagent": 1, "combined z-score class": "no change with or without drug", "viability z-score with doxorubicin": -0.22, "viability z-score without drug": 0.67, "outcome": "inactive"}
{"gene": "Gdi2", "reagent": 1, "combined z-score class": "high cell count with doxorubicin only", "viability z-score with doxorubicin": 2.02, "viability z-score without drug": -0.84, "outcome": "inactive"}
{"gene": "Gdi2", "reagent": 2, "combined z-score class": "no change with or without drug", "viability z-score with doxorubicin": 0.34, "viability z-score without drug": 0.67, "outcome": "inactive"}
{"gene": "Cyp2f2", "reagent": 1, "combined z-score class": "no change with or without drug", "viability z-score with doxorubicin": 0, "viability z-score without drug": -0.51, "outcome": "inactive"}
{"gene": "Defa4", "reagent": 1, "combined z-score class": "no change with or without drug", "viability z-score with doxorubicin": -0.22, "viability z-score without drug": 0.84, "outcome": "inactive"}
{"gene": "Kctd12", "reagent": 1, "combined z-score class": "low cell count with doxorubicin only", "viability z-score with doxorubicin": -3.6, "viability z-score without drug": -1.85, "outcome": "active"}
{"gene": "Fam111a", "reagent": 1, "combined z-score class": "no change with or without drug", "viability z-score with doxorubicin": 1.12, "viability z-score without drug": -0.51, "outcome": "inactive"}
{"gene": "Nif3l1", "reagent": 1, "combined z-score class": "high cell count with doxorubicin only", "viability z-score with doxorubicin": 2.59, "viability z-score without drug": 0.51, "outcome": "inactive"}
{"gene": "Vmn1r6", "reagent": 1, "combined z-score class": "no change with or without drug", "viability z-score with doxorubicin": 0, "viability z-score without drug": -0.67, "outcome": "inactive"}
{"gene": "Ube2a", "reagent": 1, "combined z-score class": "no change with or without drug", "viability z-score with doxorubicin": 0.9, "viability z-score without drug": 0.34, "outcome": "inactive"}
{"gene": "Def8", "reagent": 1, "combined z-score class": "no change with or without drug", "viability z-score with doxorubicin": -0.9, "viability z-score without drug": 0.51, "outcome": "inactive"}
{"gene": "Snap23", "reagent": 1, "combined z-score class": "no change with or without drug", "viability z-score with doxorubicin": -0.56, "viability z-score without drug": -0.51, "outcome": "inactive"}
{"gene": "Dhx57", "reagent": 1, "combined z-score class": "no change with or without drug", "viability z-score with doxorubicin": 0.22, "viability z-score without drug": -0.17, "outcome": "inactive"}
{"gene": "Ywhah", "reagent": 1, "combined z-score class": "no change with or without drug", "viability z-score with doxorubicin": -0.22, "viability z-score without drug": 0.84, "outcome": "inactive"}
{"gene": "Ahsa2", "reagent": 1, "combined z-score class": "no change with or without drug", "viability z-score with doxorubicin": 0, "viability z-score without drug": 1.18, "outcome": "inactive"}
{"gene": "Erlin1", "reagent": 1, "combined z-score class": "no change with or without drug", "viability z-score with doxorubicin": -0.9, "viability z-score without drug": 0.17, "outcome": "inactive"}
{"gene": "Haus4", "reagent": 1, "combined z-score class": "no change with or without drug", "viability z-score with doxorubicin": 0.67, "viability z-score without drug": 0.84, "outcome": "inactive"}
{"gene": "Atf6b", "reagent": 1, "combined z-score class": "no change with or without drug", "viability z-score with doxorubicin": 0.22, "viability z-score without drug": -0.51, "outcome": "inactive"}
{"gene": "Gkn2", "reagent": 1, "combined z-score class": "no change with or without drug", "viability z-score with doxorubicin": 0, "viability z-score without drug": 1.52, "outcome": "inactive"}
{"gene": "Phgdh", "reagent": 1, "combined z-score class": "no change with or without drug", "viability z-score with doxorubicin": -0.45, "viability z-score without drug": -1.01, "outcome": "inactive"}
{"gene": "Or4f61", "reagent": 1, "combined z-score class": "no change with or without drug", "viability z-score with doxorubicin": 0.67, "viability z-score without drug": 1.01, "outcome": "inactive"}
{"gene": "Smr2", "reagent": 1, "combined z-score class": "low cell count with doxorubicin only", "viability z-score with doxorubicin": -2.36, "viability z-score without drug": 0, "outcome": "active"}
{"gene": "Cd3d", "reagent": 1, "combined z-score class": "no change with or without drug", "viability z-score with doxorubicin": 0, "viability z-score without drug": -0.17, "outcome": "inactive"}
{"gene": "Wnt4", "reagent": 1, "combined z-score class": "no change with or without drug", "viability z-score with doxorubicin": 0, "viability z-score without drug": 0.51, "outcome": "inactive"}
{"gene": "Ifna14", "reagent": 1, "combined z-score class": "no change with or without drug", "viability z-score with doxorubicin": -1.01, "viability z-score without drug": -0.17, "outcome": "inactive"}
{"gene": "Sult1c2", "reagent": 1, "combined z-score class": "no change with or without drug", "viability z-score with doxorubicin": 0.67, "viability z-score without drug": 0.17, "outcome": "inactive"}
{"gene": "Hk1", "reagent": 1, "combined z-score class": "no change with or without drug", "viability z-score with doxorubicin": 1.57, "viability z-score without drug": 0.84, "outcome": "inactive"}
{"gene": "Cwc22", "reagent": 1, "combined z-score class": "low cell count with and without drug", "viability z-score with doxorubicin": -3.04, "viability z-score without drug": -2.87, "outcome": "inactive"}
{"gene": "Prxl2b", "reagent": 1, "combined z-score class": "high cell count without drug only", "viability z-score with doxorubicin": 1.24, "viability z-score without drug": 2.19, "outcome": "inactive"}

Active calls, of those listed so far:
{"gene": "Clrn1", "reagent": 1, "combined z-score class": "low cell count with doxorubicin only", "viability z-score with doxorubicin": -3.6, "viability z-score without drug": -1.18, "outcome": "active"}
{"gene": "Kctd12", "reagent": 1, "combined z-score class": "low cell count with doxorubicin only", "viability z-score with doxorubicin": -3.6, "viability z-score without drug": -1.85, "outcome": "active"}
{"gene": "Smr2", "reagent": 1, "combined z-score class": "low cell count with doxorubicin only", "viability z-score with doxorubicin": -2.36, "viability z-score without drug": 0, "outcome": "active"}
